The list shows a part of the results.
Columns and labels:
Experiment in all cases: log2 fold change, soluble protein after heating vs DMSO (PISA); higher = thermal stabilisation; K562 lysate, 10 uM; active = over 0.2 and 3.5 SD of the protein, either way, in both replicates (recomputed)
[1] = compound: C1=CC=C(C=C1)[C@H](COC2=CC3=C(C=C2)NC(=O)N3)NC(=O)C4=CC=CN(C4=O)CC5=CC(=C(C=C5)F)F
Method in brief: (§1)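 To prepare the extract, K562 pellets were dounce-homogenised in PBS pH 7.4 with 1 mM MgCl2, giving crude material at 1 mg/mL protein. This was treated with 10 μM compound for 30 min, then heated in aliquots for 3 min over 48°C-58°C before pooling and addition of NP-40 to 0.5% at 4°C. Centrifugation at 21,000xg for 90 min left soluble protein in the supernatant, which TMTpro 16plex LC-MS/MS quantified with equalised channel sums. Results are log-two fold changes in thermal stability compared with solvent controls, from duplicates.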

Sequences of proteins named here, by UniProt entry; tags and fusion partners are left off. A change or cut given only in a name is not applied to a line headed by its entry.
UniProt P36543, whole entry, looked up: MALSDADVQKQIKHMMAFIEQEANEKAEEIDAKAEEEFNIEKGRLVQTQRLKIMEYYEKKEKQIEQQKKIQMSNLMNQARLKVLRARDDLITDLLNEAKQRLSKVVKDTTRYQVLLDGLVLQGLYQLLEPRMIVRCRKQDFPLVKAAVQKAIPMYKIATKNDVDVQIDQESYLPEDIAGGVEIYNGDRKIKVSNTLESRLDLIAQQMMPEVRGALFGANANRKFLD
UniProt P61421, whole entry, looked up: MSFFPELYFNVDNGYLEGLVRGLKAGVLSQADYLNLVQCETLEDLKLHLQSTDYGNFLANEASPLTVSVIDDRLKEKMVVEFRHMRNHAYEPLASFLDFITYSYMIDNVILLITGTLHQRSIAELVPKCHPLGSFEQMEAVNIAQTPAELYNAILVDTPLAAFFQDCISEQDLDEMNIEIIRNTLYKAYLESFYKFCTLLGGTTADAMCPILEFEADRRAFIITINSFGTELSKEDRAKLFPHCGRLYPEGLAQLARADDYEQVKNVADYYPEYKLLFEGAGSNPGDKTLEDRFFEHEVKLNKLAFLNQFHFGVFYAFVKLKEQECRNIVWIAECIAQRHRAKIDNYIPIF
UniProt Q96GX2: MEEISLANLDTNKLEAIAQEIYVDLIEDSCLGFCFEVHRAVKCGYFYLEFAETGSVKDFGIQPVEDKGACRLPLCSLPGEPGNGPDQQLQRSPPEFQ
UniProt Q9NWX5: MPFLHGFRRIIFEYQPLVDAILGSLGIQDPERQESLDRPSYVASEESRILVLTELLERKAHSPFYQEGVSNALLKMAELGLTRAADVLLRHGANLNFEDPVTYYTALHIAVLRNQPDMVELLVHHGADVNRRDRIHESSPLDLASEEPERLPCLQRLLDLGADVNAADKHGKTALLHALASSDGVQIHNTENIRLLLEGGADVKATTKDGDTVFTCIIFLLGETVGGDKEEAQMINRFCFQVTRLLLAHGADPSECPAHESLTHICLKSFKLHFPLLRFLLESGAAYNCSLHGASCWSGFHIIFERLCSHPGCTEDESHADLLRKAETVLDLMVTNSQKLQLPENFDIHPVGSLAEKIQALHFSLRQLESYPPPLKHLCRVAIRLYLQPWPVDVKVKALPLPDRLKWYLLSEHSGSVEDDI
UniProt P08243: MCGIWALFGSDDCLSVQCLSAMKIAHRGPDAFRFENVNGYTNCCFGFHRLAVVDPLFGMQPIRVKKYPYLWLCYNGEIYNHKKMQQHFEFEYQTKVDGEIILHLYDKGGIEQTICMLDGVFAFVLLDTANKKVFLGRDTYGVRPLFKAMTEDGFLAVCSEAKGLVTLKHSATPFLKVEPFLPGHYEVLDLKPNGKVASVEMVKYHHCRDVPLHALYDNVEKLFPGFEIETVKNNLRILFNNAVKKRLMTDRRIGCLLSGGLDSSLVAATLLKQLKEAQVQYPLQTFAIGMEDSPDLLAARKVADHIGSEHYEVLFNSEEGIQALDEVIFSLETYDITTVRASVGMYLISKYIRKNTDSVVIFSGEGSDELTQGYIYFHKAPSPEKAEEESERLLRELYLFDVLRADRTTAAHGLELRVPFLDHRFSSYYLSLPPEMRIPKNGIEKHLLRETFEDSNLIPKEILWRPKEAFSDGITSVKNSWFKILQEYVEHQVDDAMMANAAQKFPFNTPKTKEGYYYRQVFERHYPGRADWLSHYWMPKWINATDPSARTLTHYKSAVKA
UniProt O75787, whole entry, looked up: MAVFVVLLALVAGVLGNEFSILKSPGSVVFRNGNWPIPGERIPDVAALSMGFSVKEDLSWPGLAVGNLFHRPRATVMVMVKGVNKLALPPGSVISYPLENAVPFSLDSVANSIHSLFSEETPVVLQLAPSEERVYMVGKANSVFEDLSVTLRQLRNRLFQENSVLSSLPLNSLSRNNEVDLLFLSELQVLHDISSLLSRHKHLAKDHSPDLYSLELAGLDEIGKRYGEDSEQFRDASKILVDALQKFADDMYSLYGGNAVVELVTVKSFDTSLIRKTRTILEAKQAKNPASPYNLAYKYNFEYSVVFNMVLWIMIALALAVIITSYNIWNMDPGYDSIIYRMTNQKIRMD
UniProt P56381: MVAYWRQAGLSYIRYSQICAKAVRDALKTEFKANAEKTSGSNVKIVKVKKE
UniProt Q8NHH9: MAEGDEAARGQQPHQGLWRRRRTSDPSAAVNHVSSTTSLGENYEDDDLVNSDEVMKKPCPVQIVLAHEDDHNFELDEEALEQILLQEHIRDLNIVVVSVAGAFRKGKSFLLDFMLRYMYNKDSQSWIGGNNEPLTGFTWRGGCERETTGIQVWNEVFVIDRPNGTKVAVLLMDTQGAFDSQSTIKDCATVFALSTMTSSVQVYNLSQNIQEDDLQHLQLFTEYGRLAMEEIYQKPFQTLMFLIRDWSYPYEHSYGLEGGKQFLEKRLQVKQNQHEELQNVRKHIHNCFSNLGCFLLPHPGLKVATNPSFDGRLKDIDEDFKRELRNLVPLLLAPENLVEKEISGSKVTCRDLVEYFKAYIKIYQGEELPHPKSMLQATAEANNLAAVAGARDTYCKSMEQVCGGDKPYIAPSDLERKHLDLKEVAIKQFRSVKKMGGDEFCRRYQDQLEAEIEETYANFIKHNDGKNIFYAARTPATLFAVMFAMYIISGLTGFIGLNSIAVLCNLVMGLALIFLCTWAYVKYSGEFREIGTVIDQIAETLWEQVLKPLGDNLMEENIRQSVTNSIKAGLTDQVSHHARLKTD
UniProt Q9NY97: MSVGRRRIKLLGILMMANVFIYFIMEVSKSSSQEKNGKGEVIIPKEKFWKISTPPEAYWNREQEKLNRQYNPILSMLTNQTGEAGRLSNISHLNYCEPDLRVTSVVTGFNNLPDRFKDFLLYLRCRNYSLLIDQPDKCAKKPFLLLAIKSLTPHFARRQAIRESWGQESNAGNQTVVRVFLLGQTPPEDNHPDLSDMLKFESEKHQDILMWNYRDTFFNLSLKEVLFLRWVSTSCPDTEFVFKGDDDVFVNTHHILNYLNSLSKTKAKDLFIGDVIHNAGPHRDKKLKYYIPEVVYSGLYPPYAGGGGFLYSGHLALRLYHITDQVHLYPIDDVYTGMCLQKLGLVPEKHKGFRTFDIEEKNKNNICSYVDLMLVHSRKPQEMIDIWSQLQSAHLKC
UniProt O75964: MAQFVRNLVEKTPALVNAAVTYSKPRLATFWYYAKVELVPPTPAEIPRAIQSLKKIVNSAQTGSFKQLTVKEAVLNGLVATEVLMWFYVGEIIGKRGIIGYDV
UniProt Q9H7T9: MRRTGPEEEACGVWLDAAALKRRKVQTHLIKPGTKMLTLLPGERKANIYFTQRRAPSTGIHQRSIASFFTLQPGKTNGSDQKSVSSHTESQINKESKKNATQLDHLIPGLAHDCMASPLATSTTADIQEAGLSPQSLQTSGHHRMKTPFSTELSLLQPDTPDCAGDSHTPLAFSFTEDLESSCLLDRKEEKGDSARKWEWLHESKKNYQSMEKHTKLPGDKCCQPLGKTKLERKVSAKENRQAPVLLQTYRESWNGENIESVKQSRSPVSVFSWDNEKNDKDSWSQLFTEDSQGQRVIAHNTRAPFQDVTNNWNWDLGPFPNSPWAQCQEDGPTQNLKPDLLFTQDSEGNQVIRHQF
UniProt P54252: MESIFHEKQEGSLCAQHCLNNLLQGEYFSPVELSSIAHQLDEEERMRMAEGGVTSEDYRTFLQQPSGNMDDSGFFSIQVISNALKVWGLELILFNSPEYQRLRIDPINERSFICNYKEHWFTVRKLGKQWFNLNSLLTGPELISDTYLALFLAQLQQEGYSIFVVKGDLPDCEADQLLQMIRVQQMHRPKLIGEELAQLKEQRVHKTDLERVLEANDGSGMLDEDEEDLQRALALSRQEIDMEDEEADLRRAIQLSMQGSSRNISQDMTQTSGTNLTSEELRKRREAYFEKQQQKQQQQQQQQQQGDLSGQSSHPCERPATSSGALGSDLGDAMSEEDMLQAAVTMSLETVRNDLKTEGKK
UniProt Q8N5M1: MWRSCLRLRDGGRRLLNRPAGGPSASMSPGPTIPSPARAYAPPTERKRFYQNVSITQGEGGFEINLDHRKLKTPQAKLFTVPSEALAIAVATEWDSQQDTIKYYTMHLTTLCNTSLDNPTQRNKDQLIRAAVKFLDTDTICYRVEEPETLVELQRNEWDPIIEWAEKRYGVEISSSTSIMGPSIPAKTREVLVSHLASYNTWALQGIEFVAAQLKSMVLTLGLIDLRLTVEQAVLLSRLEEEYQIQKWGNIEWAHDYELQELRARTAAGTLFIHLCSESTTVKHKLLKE
UniProt Q2TAZ0: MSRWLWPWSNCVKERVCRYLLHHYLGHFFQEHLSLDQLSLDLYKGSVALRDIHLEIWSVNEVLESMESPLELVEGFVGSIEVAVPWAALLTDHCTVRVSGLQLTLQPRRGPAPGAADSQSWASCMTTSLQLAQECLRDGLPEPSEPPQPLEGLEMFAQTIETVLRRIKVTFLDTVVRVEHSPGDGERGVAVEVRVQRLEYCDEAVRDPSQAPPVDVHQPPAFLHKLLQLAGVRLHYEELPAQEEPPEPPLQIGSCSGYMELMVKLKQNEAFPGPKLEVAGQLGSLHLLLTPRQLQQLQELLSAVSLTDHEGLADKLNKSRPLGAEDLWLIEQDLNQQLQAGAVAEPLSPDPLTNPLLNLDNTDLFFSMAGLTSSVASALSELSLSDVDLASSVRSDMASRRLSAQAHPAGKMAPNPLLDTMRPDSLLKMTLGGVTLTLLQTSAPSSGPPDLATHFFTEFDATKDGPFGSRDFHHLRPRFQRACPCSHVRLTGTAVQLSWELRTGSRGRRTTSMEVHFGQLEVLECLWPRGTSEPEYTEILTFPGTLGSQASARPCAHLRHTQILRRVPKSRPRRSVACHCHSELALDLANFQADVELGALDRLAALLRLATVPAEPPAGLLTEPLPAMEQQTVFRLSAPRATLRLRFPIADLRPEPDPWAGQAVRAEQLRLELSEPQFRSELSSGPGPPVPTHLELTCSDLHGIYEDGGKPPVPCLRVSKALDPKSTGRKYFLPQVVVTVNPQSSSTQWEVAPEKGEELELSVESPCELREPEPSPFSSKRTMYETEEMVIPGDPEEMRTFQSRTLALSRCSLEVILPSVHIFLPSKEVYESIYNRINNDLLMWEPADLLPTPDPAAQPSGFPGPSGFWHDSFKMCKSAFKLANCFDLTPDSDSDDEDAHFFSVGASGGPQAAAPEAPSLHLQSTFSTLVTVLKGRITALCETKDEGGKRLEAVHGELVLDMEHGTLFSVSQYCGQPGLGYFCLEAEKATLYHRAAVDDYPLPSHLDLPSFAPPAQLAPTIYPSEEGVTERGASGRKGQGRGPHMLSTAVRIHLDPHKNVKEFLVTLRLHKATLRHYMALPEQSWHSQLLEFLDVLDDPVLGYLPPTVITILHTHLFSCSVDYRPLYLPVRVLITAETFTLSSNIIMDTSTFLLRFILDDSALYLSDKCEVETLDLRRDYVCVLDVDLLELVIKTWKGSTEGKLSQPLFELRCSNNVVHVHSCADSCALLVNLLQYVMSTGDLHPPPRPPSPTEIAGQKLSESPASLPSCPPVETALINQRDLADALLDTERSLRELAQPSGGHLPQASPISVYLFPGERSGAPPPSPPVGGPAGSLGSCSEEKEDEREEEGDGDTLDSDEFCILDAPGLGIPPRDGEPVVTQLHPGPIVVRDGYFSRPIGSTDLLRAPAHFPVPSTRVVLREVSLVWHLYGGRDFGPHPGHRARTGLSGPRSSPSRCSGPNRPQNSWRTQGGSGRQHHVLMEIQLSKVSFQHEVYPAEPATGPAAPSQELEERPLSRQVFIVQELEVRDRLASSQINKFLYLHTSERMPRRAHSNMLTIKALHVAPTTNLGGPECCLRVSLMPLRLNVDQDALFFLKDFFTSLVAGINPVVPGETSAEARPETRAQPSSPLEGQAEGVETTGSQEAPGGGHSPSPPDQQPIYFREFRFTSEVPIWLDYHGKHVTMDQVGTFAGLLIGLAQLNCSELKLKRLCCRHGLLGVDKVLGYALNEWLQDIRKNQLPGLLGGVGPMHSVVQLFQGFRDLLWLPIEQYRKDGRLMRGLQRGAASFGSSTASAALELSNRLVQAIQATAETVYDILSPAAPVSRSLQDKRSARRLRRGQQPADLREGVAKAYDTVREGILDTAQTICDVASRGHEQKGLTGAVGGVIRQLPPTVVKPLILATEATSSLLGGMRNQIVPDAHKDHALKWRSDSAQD
UniProt Q96IX5: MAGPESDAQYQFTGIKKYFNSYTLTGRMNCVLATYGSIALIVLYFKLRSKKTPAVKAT
UniProt Q9Y4P1: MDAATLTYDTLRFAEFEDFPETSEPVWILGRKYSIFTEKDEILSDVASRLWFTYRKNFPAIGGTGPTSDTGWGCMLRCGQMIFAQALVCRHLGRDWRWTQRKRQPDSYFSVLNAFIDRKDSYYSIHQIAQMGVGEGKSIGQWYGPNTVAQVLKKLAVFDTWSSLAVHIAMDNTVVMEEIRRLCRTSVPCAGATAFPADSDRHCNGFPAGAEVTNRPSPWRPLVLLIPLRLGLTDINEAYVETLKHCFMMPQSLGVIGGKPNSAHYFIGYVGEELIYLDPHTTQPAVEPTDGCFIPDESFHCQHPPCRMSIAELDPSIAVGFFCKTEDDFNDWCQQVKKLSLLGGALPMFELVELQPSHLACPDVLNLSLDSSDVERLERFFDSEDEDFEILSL

[2] = compound: CC1=C(SC2=C1C(=N[C@H](C3=NN=C(N32)C)CC(=O)N)C4=CC=C(C=C4)Cl)C
Method in brief: as §1

[3] = compound: CC1=C2C(=CC=C1)N=C(N(C2=O)C3=CC=CC=C3C)CN4C=NC5=C(N=CN=C54)N
Method in brief: as §1

[4] = compound: Cc1sc2c(c1C)C(c1ccc(Cl)cc1)=N[C@@H](CC(=O)OC(C)(C)C)c1nnc(C)n1-2
Method in brief: as §1

[5] = compound: c1ccc([C@@H]2C[C@H]2NC2CCNCC2)cc1
Method in brief: as §1

Measured: log2 fold change

ATP6V1E1 (UniProt P36543)
inactive: [1] 0.015 | [2] -0.007 | [3] -0.012 | [4] -0.048 | [5] -0.081

ATP5PO (UniProt P48047)
inactive: [1] 0.011 | [2] -0.003 | [3] -0.033 | [4] 0.009 | [5] 0.06

ATP6V1H (UniProt Q9UI12)
inactive: [1] 0.015 | [2] 0.004 | [3] 0.003 | [4] 0.027 | [5] 0.007

ATP6V0D1 (UniProt P61421)
inactive: [1] -0.052 | [2] -0.06 | [3] -0.007 | [4] 0.012 | [5] -0.012

ATP6AP1 (UniProt Q15904)
inactive: [1] 0 | [2] -0.035 | [3] 0.039 | [4] -0.06 | [5] -0.024

ATP1A4 (UniProt Q13733)
inactive: [1] 0.035 | [2] 0.009 | [3] 0.017 | [4] -0.023 | [5] -0.03

ATXN7L3B (UniProt Q96GX2)
inactive: [1] 0.069 | [2] -0.056 | [3] 0.03 | [4] 0.001 | [5] -0.052

ATXN2 (UniProt F8WB05)
inactive: [1] -0.17 | [2] 0.212 | [3] 0.146 | [4] 0.004 | [5] 0.022

ASF1A (UniProt Q9Y294)
inactive: [1] 0.034 | [2] -0.01 | [3] 0.025 | [4] -0.024 | [5] -0.058

ATP5F1D (UniProt P30049)
inactive: [1] -0.018 | [2] -0.05 | [3] -0.039 | [4] -0.008 | [5] -0.048

ATE1 isoform 2 (UniProt O95260)
inactive: [1] -0.015 | [2] -0.008 | [3] -0.004 | [4] 0.009 | [5] -0.087

ATP5ME (UniProt P56385)
inactive: [1] 0.028 | [2] -0.012 | [3] 0.004 | [4] -0.019 | [5] -0.054

ATP7A isoform 3 (UniProt Q04656)
inactive: [1] 0 | [2] 0.006 | [3] 0.019 | [4] 0.01 | [5] 0.034

ASB6 (UniProt Q9NWX5)
inactive: [1] 0.012 | [2] 0.125 | [3] 0.005 | [4] 0.016 | [5] 0.028

ATP2B1 isoform 1 (UniProt P20020)
inactive: [1] -0.012 | [2] -0.015 | [3] 0.011 | [4] -0.056 | [5] -0.037

ASL (UniProt P04424)
inactive: [1] -0.008 | [2] 0.023 | [3] 0.022 | [4] 0.005 | [5] 0.015

ASNS (UniProt P08243)
inactive: [1] 0.006 | [2] 0.021 | [3] 0.027 | [4] 0.057 | [5] 0.033

ATP23 (UniProt Q9Y6H3)
inactive: [1] 0.013 | [2] 0.135 | [3] 0.032 | [4] -0.009 | [5] 0.126

AURKA (UniProt O14965)
inactive: [1] -0.053 | [2] -0.001 | [3] -0.042 | [4] -0.055 | [5] -0.157

ATP6AP2 (UniProt O75787)
inactive: [1] -0.033 | [2] 0.044 | [3] 0.075 | [4] -0.02 | [5] 0.091

ATP7B (UniProt P35670)
inactive: [1] -0.012 | [2] -0.003 | [3] 0.098 | [4] -0.06 | [5] -0.02

ATIC (UniProt P31939)
inactive: [1] 0.001 | [2] 0.022 | [3] 0 | [4] 0.052 | [5] 0.014

AVEN (UniProt Q9NQS1)
inactive: [1] 0.205 | [2] 0.025 | [3] 0.003 | [4] 0.013 | [5] -0.058

ATP5F1E (UniProt P56381)
inactive: [1] 0.092 | [2] -0.068 | [3] 0.016 | [4] 0.001 | [5] -0.036

AZGP1 (UniProt P25311)
inactive: [1] -0.213 | [2] 0.062 | [3] -0.396 | [4] 0.172 | [5] -0.148

ATL2 (UniProt Q8NHH9)
inactive: [1] -0.003 | [2] 0.023 | [3] 0.018 | [4] -0.064 | [5] -0.03

ATP11B (UniProt Q9Y2G3)
inactive: [1] 0.024 | [2] -0.032 | [3] 0.018 | [4] -0.015 | [5] -0.107

ATP6V1E2 (UniProt Q96A05)
inactive: [1] -0.003 | [2] -0.009 | [3] 0.043 | [4] -0.103 | [5] -0.048

ATP6V0C (UniProt P27449)
inactive: [1] 0.039 | [2] -0.117 | [3] 0.022 | [4] -0.069 | [5] -0.054

B3GNT5 (UniProt Q9BYG0)
inactive: [1] 0.066 | [2] 0.174 | [3] -0.037 | [4] -0.11 | [5] -0.088

ATOX1 (UniProt O00244)
inactive: [1] -0.067 | [2] 0.008 | [3] -0.052 | [4] -0.016 | [5] 0

ATP9B (UniProt O43861)
inactive: [1] 0.109 | [2] -0.028 | [3] 0.015 | [4] -0.019 | [5] -0.079

ATG4C (UniProt Q96DT6)
inactive: [1] 0.044 | [2] 0.05 | [3] -0.043 | [4] -0.015 | [5] -0.058

AXIN1 (UniProt O15169)
inactive: [1] -0.108 | [2] 0.074 | [3] 0.005 | [4] -0.046 | [5] -0.05

ATG9A (UniProt Q7Z3C6)
inactive: [1] 0.014 | [2] 0.029 | [3] 0.028 | [4] -0.098 | [5] 0.022

ATP6V1A (UniProt P38606)
inactive: [1] 0.002 | [2] 0.009 | [3] -0.002 | [4] -0.01 | [5] 0.024

ATP5F1A (UniProt P25705)
inactive: [1] 0.013 | [2] 0.002 | [3] -0.006 | [4] -0.06 | [5] 0.01

ATP6V1F isoform 2 (UniProt Q16864)
inactive: [1] -0.026 | [2] 0.039 | [3] 0.018 | [4] -0.013 | [5] 0.22

ATP11C (UniProt Q8NB49)
inactive: [1] 0.033 | [2] -0.006 | [3] -0.005 | [4] -0.013 | [5] 0.003

ATP5F1B (UniProt P06576)
inactive: [1] 0.018 | [2] 0.016 | [3] -0.005 | [4] -0.015 | [5] 0.003

13 neighbouring entries already listed, for reference:
ATE1 isoform 2 (UniProt O95260)
inactive: [1] -0.015 | [2] -0.008 | [3] -0.004 | [4] 0.009 | [5] -0.087

ATP5ME (UniProt P56385)
inactive: [1] 0.028 | [2] -0.012 | [3] 0.004 | [4] -0.019 | [5] -0.054

ATP7A isoform 3 (UniProt Q04656)
inactive: [1] 0 | [2] 0.006 | [3] 0.019 | [4] 0.01 | [5] 0.034

ASB6 (UniProt Q9NWX5)
inactive: [1] 0.012 | [2] 0.125 | [3] 0.005 | [4] 0.016 | [5] 0.028

ATP2B1 isoform 1 (UniProt P20020)
inactive: [1] -0.012 | [2] -0.015 | [3] 0.011 | [4] -0.056 | [5] -0.037

ASL (UniProt P04424)
inactive: [1] -0.008 | [2] 0.023 | [3] 0.022 | [4] 0.005 | [5] 0.015

ASNS (UniProt P08243)
inactive: [1] 0.006 | [2] 0.021 | [3] 0.027 | [4] 0.057 | [5] 0.033

ATP23 (UniProt Q9Y6H3)
inactive: [1] 0.013 | [2] 0.135 | [3] 0.032 | [4] -0.009 | [5] 0.126

AURKA (UniProt O14965)
inactive: [1] -0.053 | [2] -0.001 | [3] -0.042 | [4] -0.055 | [5] -0.157

ATP6AP2 (UniProt O75787)
inactive: [1] -0.033 | [2] 0.044 | [3] 0.075 | [4] -0.02 | [5] 0.091

ATP7B (UniProt P35670)
inactive: [1] -0.012 | [2] -0.003 | [3] 0.098 | [4] -0.06 | [5] -0.02

ATIC (UniProt P31939)
inactive: [1] 0.001 | [2] 0.022 | [3] 0 | [4] 0.052 | [5] 0.014

AVEN (UniProt Q9NQS1)
inactive: [1] 0.205 | [2] 0.025 | [3] 0.003 | [4] 0.013 | [5] -0.058

The listing continues.

ASCC1 isoform 2 (UniProt Q8N9N2)
inactive: [1] 0.033 | [2] -0.009 | [3] 0.039 | [4] -0.04 | [5] 0

B3GNT2 (UniProt Q9NY97)
inactive: [1] 0.02 | [2] 0.075 | [3] 0.085 | [4] -0.028 | [5] 0.047

ATP5MG (UniProt O75964)
inactive: [1] -0.046 | [2] -0.024 | [3] 0.018 | [4] -0.038 | [5] -0.028

AUNIP isoform 2 (UniProt Q9H7T9)
inactive: [1] -0.032 | [2] 0.114 | [3] -0.024 | [4] -0.01 | [5] -0.159

ASDURF (UniProt L0R819)
inactive: [1] -0.013 | [2] 0.076 | [3] 0.007 | [4] -0.061 | [5] -0.014

ATXN3 isoform 1 (UniProt P54252)
inactive: [1] 0.053 | [2] -0.011 | [3] 0.061 | [4] 0.002 | [5] 0.016

ATPAF2 (UniProt Q8N5M1)
inactive: [1] 0.118 | [2] 0.018 | [3] 0.026 | [4] -0.073 | [5] -0.044

ATG2A isoform 3 (UniProt Q2TAZ0)
inactive: [1] -0.064 | [2] 0.026 | [3] 0.104 | [4] 0.035 | [5] 0.031

ATP5MD (UniProt Q96IX5)
inactive: [1] -0.035 | [2] -0.043 | [3] -0.028 | [4] 0.14 | [5] -0.072

ATAD1 (UniProt Q8NBU5)
inactive: [1] -0.052 | [2] 0.032 | [3] -0.015 | [4] -0.092 | [5] 0.002

ATG4B (UniProt Q9Y4P1)
inactive: [1] 0.004 | [2] 0.034 | [3] 0.017 | [4] -0.002 | [5] 0.051

ATP2C1 isoform 7 (UniProt P98194)
inactive: [1] -0.028 | [2] 0.033 | [3] 0.055 | [4] -0.026 | [5] -0.023

Source: the supplement of paper PMC10849652
